Taken from: PubChem BioAssay AID1259425 (University of Nebraska Medical Center, 2018)

Screen: 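Find knockdowns that reproduce the gene expression pattern seen when KSR1 is lost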 (primary screen)
Cells: HCT116 human colon cancer cells
Reagent: siRNA pool against human genes, 50 nM siRNA
Measurement: 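mRNA of six signature genes measured together by branched-DNA assay after 50 nM siRNA pool, blank removed, divided by geometric mean of two housekeeping genes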
Direction: BNIP3L mRNA: higher = more BNIP3L transcript after knockdown; NDRG1 mRNA: higher = more NDRG1 transcript after knockdown; BNIP3 mRNA: higher = more BNIP3 transcript after knockdown; ALDOC mRNA: higher = more ALDOC transcript after knockdown; ACSL5 mRNA: higher = more ACSL5 transcript after knockdown
The whole screen tested about 14,000 reagents; below is an unselected part. The record does not give: the time to read-out.

target	BNIP3L mRNA, set 1	NDRG1 mRNA, set 1	BNIP3 mRNA, set 1	ALDOC mRNA, set 1	ACSL5 mRNA, set 1
ATP8B4 (GeneID 79895)	0.173	0.198	0.293	0.0474	0.219
KCTD15 (GeneID 79047)	0.274	0.32	0.251	0.0161	0.285
MARCHF2 (GeneID 51257)	0.11	0.159	0.49	0.068	0.464
GSR (GeneID 2936)	0.131	0.386	0.329	0.0215	0.2
ZFYVE16 (GeneID 9765)	0.0909	0.296	0.289	0.0209	0.2
PAPSS2 (GeneID 9060)	0.0705	0.227	0.329	0.00583	0.18
GSTT1 (GeneID 2952)	0.129	0.577	0.224	0.0165	0.0514
WWP2 (GeneID 11060)	0.0813	0.153	0.292	0.0108	0.113
ADAM2 (GeneID 2515)	0.0784	0.397	0.364	0.0272	0.158
S100A6 (GeneID 6277)	0.117	0.349	0.289	0.0263	0.182
GINS4 (GeneID 84296)	0.113	0.158	0.234	0.062	0.242
SPACA9 (GeneID 11092)	0.187	0.189	0.212	0.0223	0.114
TAF1 (GeneID 6872)	0.109	0.186	0.427	0.0109	0.21
KLHL27 (GeneID 3652)	0.105	0.137	0.239	0.0135	0.0922
SLTM (GeneID 79811)	0.118	0.137	0.289	0.0392	0.226
NXT2 (GeneID 55916)	0.107	0.121	0.249	0.0262	0.234
MYOF (GeneID 26509)	0.0969	0.0987	0.339	0.0298	0.205
TUBB7P (GeneID 56604)	0.11	0.296	0.252	0.0402	0.239
UBAP2L (GeneID 9898)	0.23	0.14	0.288	0.0287	0.436
CDK9 (GeneID 1025)	0.104	0.128	0.478	0.00915	0.188
RPS14 (GeneID 6208)	0.0464	0.208	0.53	0.039	0.0659
TMSB4X (GeneID 7114)	0.171	0.469	0.588	0.0545	0.259
CLEC4A (GeneID 50856)	0.0487	0.151	0.376	0.00463	0.208
WIPI2 (GeneID 26100)	0.105	0.167	0.628	0.0354	0.184
SLC25A28 (GeneID 81894)	0.135	0.204	0.341	0.0341	0.254
RNASEH2A (GeneID 10535)	0.0541	0.112	0.351	0.0486	0.122
PID1 (GeneID 55022)	0.153	0.171	0.335	0.0258	0.143
SUCO (GeneID 51430)	0.119	0.259	0.309	0.0217	0.234
SPTBN2 (GeneID 6712)	0.134	0.226	0.309	0.0461	0.135
MYBPC1 (GeneID 4604)	0.159	0.178	0.35	0.0441	0.32
FCHO1 (GeneID 23149)	0.0932	0.0743	0.452	0.0171	0.0649
NUFIP1 (GeneID 26747)	0.137	0.202	0.182	0.0255	0.16
NEU2 (GeneID 4759)	0.08	0.0848	0.257	0.0108	0.0885
KCNQ5 (GeneID 56479)	0.0861	0.11	0.298	0.0414	0.15
